Publication doi:10.1101/2022.04.14.488335

Biological target: T1, MBP-SYCP1N (amino-acids 1-362) (UniProt Q15431)
T1 sequence: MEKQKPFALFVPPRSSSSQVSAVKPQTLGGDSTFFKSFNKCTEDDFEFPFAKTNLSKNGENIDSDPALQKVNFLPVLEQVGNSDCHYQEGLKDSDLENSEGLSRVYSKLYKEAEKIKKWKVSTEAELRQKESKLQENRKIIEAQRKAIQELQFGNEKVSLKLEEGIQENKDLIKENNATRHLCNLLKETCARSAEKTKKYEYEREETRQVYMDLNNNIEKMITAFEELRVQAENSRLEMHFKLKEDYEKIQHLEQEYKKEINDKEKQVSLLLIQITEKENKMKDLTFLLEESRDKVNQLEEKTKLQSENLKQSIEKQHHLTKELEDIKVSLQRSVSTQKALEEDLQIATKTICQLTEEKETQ
Experiment: condition: three-fold molar excess with respect to MBP-SYCP1N

With SYCE1-SIX6OS1 complex the binding was “no binding”.

No constants are given. Whether binding was seen depends on the method and setting. Where a sequence is shown, tags or fusion partners need not be part of it.
